For 1 substance, binding results are on record in paper PMC12323271.

The chains behind the UniProt entries cited, without tags or fusion partners.
UniProt Q61221: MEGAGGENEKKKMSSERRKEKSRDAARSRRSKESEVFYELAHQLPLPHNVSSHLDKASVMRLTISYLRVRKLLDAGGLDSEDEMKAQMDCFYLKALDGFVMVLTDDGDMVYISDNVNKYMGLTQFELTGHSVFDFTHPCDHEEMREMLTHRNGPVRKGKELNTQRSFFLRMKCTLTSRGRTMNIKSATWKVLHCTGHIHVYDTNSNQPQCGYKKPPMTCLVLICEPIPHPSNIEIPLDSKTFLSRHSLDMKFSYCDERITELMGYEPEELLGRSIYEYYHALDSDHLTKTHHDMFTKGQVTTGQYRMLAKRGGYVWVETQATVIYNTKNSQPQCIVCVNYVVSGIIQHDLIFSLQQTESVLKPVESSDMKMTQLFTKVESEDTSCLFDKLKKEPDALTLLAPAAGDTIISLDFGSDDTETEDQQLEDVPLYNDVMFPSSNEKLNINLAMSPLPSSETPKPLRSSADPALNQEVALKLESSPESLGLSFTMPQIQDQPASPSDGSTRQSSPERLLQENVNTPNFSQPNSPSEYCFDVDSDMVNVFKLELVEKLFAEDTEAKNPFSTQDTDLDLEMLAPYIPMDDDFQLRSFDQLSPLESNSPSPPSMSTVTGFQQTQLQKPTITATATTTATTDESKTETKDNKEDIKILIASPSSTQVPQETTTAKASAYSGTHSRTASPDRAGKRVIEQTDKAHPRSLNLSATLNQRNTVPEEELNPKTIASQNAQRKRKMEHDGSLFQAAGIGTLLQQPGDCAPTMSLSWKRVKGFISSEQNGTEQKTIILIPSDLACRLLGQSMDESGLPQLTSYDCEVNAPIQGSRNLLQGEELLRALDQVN
UniProt P53762: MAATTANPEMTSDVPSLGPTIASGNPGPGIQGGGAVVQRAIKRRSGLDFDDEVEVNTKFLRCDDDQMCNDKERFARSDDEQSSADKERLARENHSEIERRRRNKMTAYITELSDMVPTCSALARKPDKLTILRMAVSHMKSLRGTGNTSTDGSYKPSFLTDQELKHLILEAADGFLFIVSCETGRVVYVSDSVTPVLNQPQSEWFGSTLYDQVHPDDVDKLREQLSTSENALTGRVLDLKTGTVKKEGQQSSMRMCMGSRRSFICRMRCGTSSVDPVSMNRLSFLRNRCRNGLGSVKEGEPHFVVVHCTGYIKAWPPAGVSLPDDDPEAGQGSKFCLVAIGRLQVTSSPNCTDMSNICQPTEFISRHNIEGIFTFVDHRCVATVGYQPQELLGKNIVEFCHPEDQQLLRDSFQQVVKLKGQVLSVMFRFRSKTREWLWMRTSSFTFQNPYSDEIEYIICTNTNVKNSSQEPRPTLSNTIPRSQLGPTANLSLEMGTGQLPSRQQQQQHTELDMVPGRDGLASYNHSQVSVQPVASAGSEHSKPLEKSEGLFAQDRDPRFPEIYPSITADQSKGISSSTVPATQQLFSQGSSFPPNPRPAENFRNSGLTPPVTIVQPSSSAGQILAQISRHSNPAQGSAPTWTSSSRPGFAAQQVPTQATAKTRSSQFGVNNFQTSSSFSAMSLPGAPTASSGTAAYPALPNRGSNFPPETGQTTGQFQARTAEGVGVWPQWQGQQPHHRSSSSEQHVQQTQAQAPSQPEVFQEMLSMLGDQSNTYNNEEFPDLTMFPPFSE

No constants are given. Whether binding was seen depends on the method and setting. Binding seen in cells or lysates may run through a third protein. Some entries that bind do so weakly or less than the wild type.

The target of this experiment is MYC-tagged HIF-1α wild type (HIF-1α-WT-MYC) (mouse) (UniProt Q61221). In words: co-IP; IP with the anti-MYC antibody from whole-cell lysates of NIH/3T3 cells transfected with MYC-tagged HIF-1α vectors; 10 µM MG132; basal, 1 mM sodium lactate or hypoxia; blots for VHL or HIF-β.

In the case of “HIF-1β (ARNT), endogenous in NIH/3T3 cells (from UniProt P53762 1-791)”, the binding entry was “binds”.
